According to PubChem BioAssay AID1347076 (National Center for Advancing Translational Sciences (NCATS), 2019):
The whole screen tested about 400,000 compounds, of which about 13,000 (3.2%) were called active. Inconclusive results, whose numbers are uncertain, are shown with a selection of clear calls. Calls follow the shape of the dose curve; as a rule, active = well fitted cell-killing curve with a large enough effect; inconclusive = small, poorly fitted or top-dose-only effect, or effect the other way; inactive = flat fitted curve, though single readings scatter. Where the call is inconclusive, the potency comes from a doubtful curve fit.

Assay: qHTS assay for MDR1-selective chemotherapeutics: Primary screen using the drug-selected MDR subline cells KB-V1; also: nearly all actives have a fitted effect of over 60% in size
Details: KB-V1 MDR cells viability, CellTiter-Glo, 72 h; series mostly up to 46.1 µM
Procedure, shortened: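 Compound-treated KB-V1 multidrug-resistant cells, 72 h, 37 degrees C; viability by CellTiter-Glo. Fitted qHTS curves give the values.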
Potency is read from the fitted curve at half-maximal effect.

Row | SMILES | Potency
1 | Cc1cc(C)c(S(=O)(=O)Nc2ccc3c(c2)CCC3)c(C)c1 | inconclusive: 29.1 µM [cytotoxic, single point]
2 | C=C1CC2(CC(c3ccccc3)OC(c3ccccc3)C2)OC1=O (stereo unspecified) | inconclusive: 1.84 µM [cytotoxic, full curve]
3 | COc1cc(C2Oc3ccccc3C=C2[N+](=O)[O-])cc(OC)c1OC (stereo unspecified) | inconclusive: 10.3 µM [cytotoxic, partial curve]
4 | O=C(CN1C2=NCCCN2c2ccccc21)c1cccc(Br)c1 | inconclusive: 20.6 µM [cytotoxic, single point]
5 | O=C(C1CCN(S(=O)(=O)c2cccnc2)CC1)N1CCN(c2cccc(Cl)c2)CC1 | active: 6.51 µM
6 | CCC(=O)NC(c1ccccc1)c1c(OC(C)=O)ccc2ccccc12 (stereo unspecified) | inconclusive: 29.1 µM [cytotoxic, partial curve, poor fit]
7 | Cc1cccc2cc(C#N)c(SCC(=O)N3CC(=O)Nc4ccccc43)nc12 | inconclusive: 4.61 µM [cytotoxic, partial curve, poor fit]
8 | CCOC(=O)[C@@H]1[C@H]2COc3cc(OC)ccc3[C@H]2N2C(=O)N(c3ccc(Cl)cc3)C(=O)[C@]12C | inconclusive: 0.0073 µM [rising, full curve, poor fit]
9 | Cc1ccsc1C(=O)C1CCCN(Cc2cccn2-c2ccc(Cl)cn2)C1 (stereo unspecified) | inconclusive: 11.6 µM [cytotoxic, partial curve]
10 | CC(NS(=O)(=O)c1ccc(Cl)cc1)C(=O)OCC(=O)Nc1ccc(N(C)C)cc1 (stereo unspecified) | inconclusive: 29.1 µM [rising, single point]
11 | COc1ccccc1C(=O)NC(=O)COC(=O)CCOc1ccc(C)cc1 | inactive
12 | Cc1sc2ncn(CC(=O)N(C)c3ccc(Br)cc3)c(=O)c2c1S(=O)(=O)N1CCC(C)CC1 | inactive
13 | COc1cccc(C(=O)Nc2ccc(N3CCCC3)cc2)c1 | active: 5.8 µM
14 | CC(C)(C)c1ccc(SC2=C[C@@]3(O)CC[C@@H](O)[C@@](Sc4ccc(C(C)(C)C)cc4)(C2=O)[C@H]3O)cc1 | active: 13 µM
15 | CC(=O)c1cc2c(cc1NS(=O)(=O)c1ccccc1Br)OCO2 | inconclusive: 11.6 µM [cytotoxic, partial curve, poor fit]
16 | COCCOC(=O)C1=C(C)NC(=O)NC1c1ccc(Cl)cc1 (stereo unspecified) | inconclusive: 16.4 µM [cytotoxic, single point]
17 | O=C(NCC1CCCO1)C(=O)NCC(c1ccco1)N1CCN(c2ccc(F)cc2)CC1 (stereo unspecified) | active: 8.2 µM
18 | COCCNC(=O)c1ccc(NS(=O)(=O)c2cc(C)ccc2C)cc1 | inconclusive: 18.4 µM [cytotoxic, single point]
19 | C1=CN2CC=Cc3cc(/C=C/c4ccnc5ccccc45)cc(c32)C1 | inactive
20 | Cc1[nH]c2c(Cl)cccc2c1CCNC(=O)C1CCCCC1C(=O)OCC(F)(F)F (stereo unspecified) | inconclusive: 0.651 µM [cytotoxic, full curve]
21 | CCCCc1nc(N2CCOCC2)c(C#N)c2c1CCCC2 | inconclusive: 10 µM [cytotoxic, partial curve]
22 | COc1cc(-c2cc(C(=O)Nc3ccc(S(=O)(=O)Nc4ncccn4)cc3)c3ccccc3n2)cc(OC)c1OC | inactive
23 | CS(=O)(=O)N(CC(=O)Nc1ccccc1-c1ccccc1)c1cccc(F)c1 | inactive
24 | CCCC(=O)N1CCC1(C)C(=O)Nc1cc(OC)ccc1OC (stereo unspecified) | inactive

Row | SMILES | Potency
25 | COc1cccc(NC(=O)Nc2cccc(-c3cn4cccnc4n3)c2)c1 | inactive
26 | CC1CN(C(=O)COc2coc(CN3CCc4ccccc4C3)cc2=O)CC(C)O1 (stereo unspecified) | inactive
27 | Cc1nc(N)nc(N)c1CCCc1ccc(Cl)c(Cl)c1 | inconclusive: 7.31 µM [cytotoxic, partial curve]
28 | O=C(NCCc1ccccc1)c1cc(-c2ccc(Cl)cc2)on1 | inactive
29 | COc1cc(C(=O)Nn2c(C)nc3ccccc3c2=O)cc(OC)c1OC | inactive
30 | COCCNc1nc(Nc2ccc(C)cc2C)c2sccc2n1 | active: 5.17 µM
31 | Cc1ccc(NS(=O)(=O)c2cc(C(=O)N3CCc4ccccc4C3)ccc2Cl)cc1 | active: 16.4 µM
32 | O=C(NNC(=O)C1CC1)c1cc(Br)c(Br)s1 | inconclusive: 20.6 µM [rising, single point]
33 | Cc1nc(C)c(-c2csc(Nc3ncccc3C)n2)s1 | inconclusive: 5.8 µM [cytotoxic, partial curve]
34 | COc1cc(OC)cc(C(=O)N2CCCC(c3nc(-c4ccc(C)o4)no3)C2)c1 (stereo unspecified) | inconclusive: 4.11 µM [cytotoxic, partial curve]
35 | O=C(NCc1ccccc1)C(c1ccc(F)cc1)N(C(=O)c1csnn1)C1CCCC1 (stereo unspecified) | inactive
36 | CCN(CC)C(=O)Cn1c(=O)n(Cc2ccc(C(=O)NCCc3ccc(OC)c(OC)c3)cc2)c(=O)c2ccccc21 | inconclusive: 4.61 µM [rising, full curve, poor fit]
37 | CCCc1cc(N2CCCC(C(=O)Nc3ccc(OC)cc3OC)C2)n2ncnc2n1 (stereo unspecified) | active: 3.66 µM
38 | CCN(Cc1nc(-c2ccc(OC)cc2)no1)C(=O)c1ccc2c(c1)OCO2 | inconclusive: 10.3 µM [cytotoxic, partial curve, poor fit]
39 | C=CCN(CC(=O)NC1CCS(=O)(=O)C1)S(=O)(=O)c1ccccc1C(F)(F)F (stereo unspecified) | inconclusive: 20.6 µM [rising, single point]
40 | O=C(/C=C/c1cccc(F)c1)N1CCN(c2ccccn2)CC1 | inactive
41 | COc1ccccc1NC(=O)CSc1nc2ccccc2c(=O)n1C | inconclusive: 14.6 µM [cytotoxic, partial curve, poor fit]
42 | NS(=O)(=O)c1ccc(CCNC(=O)c2ccc3c(c2)N(Cc2ccccc2)CCS3)cc1 | inactive
43 | CCc1ccc(CN(Cc2cn[nH]c2-c2ccc(OC)cc2)C(=O)Nc2cc(Cl)ccc2OC)cc1 | inconclusive: 16.4 µM [cytotoxic, single point]
44 | CCOc1ncccc1C(=O)OCC(=O)Nc1ccc2c(c1)OCO2 | inconclusive: 18.4 µM [rising, single point]
45 | FC(F)(F)c1nc(N2CCCC2)ncc1-c1nnnn1-c1ccc(Cl)cc1 | active: 14.6 µM
46 | CCCNC(=O)CN1C(=O)c2ccccc2Sc2ncccc21 | inactive
47 | Cc1nc(C)c(-c2ccc(SCC(=O)Nc3ccc(F)cc3F)nn2)s1 | inconclusive: 7.31 µM [cytotoxic, partial curve]
48 | CCSC1=NC(C)(C)C=C(/C=C/c2ccc(Cl)cc2Cl)N1 | inconclusive: 18.4 µM [cytotoxic, partial curve]

Part of the list above, tab-delimited.
Row	SMILES	Potency
44	CCOc1ncccc1C(=O)OCC(=O)Nc1ccc2c(c1)OCO2	inconclusive: 18.4 µM [rising, single point]
45	FC(F)(F)c1nc(N2CCCC2)ncc1-c1nnnn1-c1ccc(Cl)cc1	active: 14.6 µM

Remaining list, next part:

Row | SMILES | Potency
49 | Cc1ccc(-n2ncc3c(NC4CCCCCC4)ncnc32)cc1Cl | inactive
50 | O=C(CN1C(=O)c2ccccc2S1(=O)=O)Nc1ccon1 | inactive
51 | CCCCn1c(=O)[nH]c(=O)c2c1nc(-c1ccc(-c3ccccc3Br)o1)n2CCOC | inconclusive: 20.6 µM [cytotoxic, single point]
52 | Cc1ccc(OCC(=O)Nc2ccc3c(c2)OCO3)cc1C | inactive
53 | CCn1c(Cc2ccccc2)nnc1SCC(=O)Nc1ccc(C)cc1 | inconclusive: 16.4 µM [cytotoxic, partial curve]
54 | CCN(CC)c1ccc(C(=C2C=CC(=[N+](CC)CC)C=C2)c2ccc(S(=O)(=O)O)cc2S(=O)(=O)[O-])cc1 | inconclusive: 0.0065 µM [cytotoxic, full curve, poor fit]
55 | COc1ccccc1Nc1c2ccccc2nc2ccccc12 | active: 14.6 µM
56 | O=C(N=Nc1c(O)[nH]c2ccc(Br)cc12)c1ccco1 | inactive
57 | Cc1ccc(C)c(S(=O)(=O)N2CCCOC2CNC(=O)C(=O)NCCc2ccccc2)c1 (stereo unspecified) | inconclusive: 4.61 µM [cytotoxic, partial curve]
58 | CCOC(=O)C1=C(C)N=C2SCCC(=O)N2C1c1ccc(OCc2ccccc2)cc1 (stereo unspecified) | inactive
59 | Cc1ccc2nsnc2c1NC(=O)c1sc2ccccc2c1Cl | inconclusive: 25.9 µM [cytotoxic, single point]
60 | CCCCN(CCCNC(=O)c1cc(Nc2ccc(OC)c(OC)c2)nc2ccccc12)Cc1ccccc1 | inactive
61 | CCc1c(C)nc(N)n2c(SCC(=O)Nc3ccccc3)nnc12 | inconclusive: 9.2 µM [cytotoxic, partial curve, poor fit]
62 | COc1cc(OC)c(Nc2nc3ccc(C(=O)c4ccccc4)cc3n3c(C)nnc23)cc1Cl | inactive
63 | Cc1cc2ccccc2cn1 | inactive
64 | O=C(Nc1ccc(OC(F)(F)F)cc1)c1cc2ccccn2n1 | inconclusive: 13 µM [cytotoxic, partial curve]
65 | O=c1nc2n(-c3ccccc3F)c3ccccc3cc-2c(=O)[nH]1 | inconclusive: 29.1 µM [rising, single point]
66 | CC(C)CCN1CCN(Cc2cccc(C(F)(F)F)c2)CC1CCO (stereo unspecified) | inconclusive: 0.058 µM [cytotoxic, full curve, poor fit]
67 | CC(C)c1ccc(C2OC(CCc3ccccc3)Cc3[nH]c(=S)[nH]c(=O)c32)cc1 (stereo unspecified) | inconclusive: 29.1 µM [rising, single point]
68 | N#C/C(=C\c1cn[nH]c1-c1ccc(Cl)cc1)C(=O)NC1CC1 | inactive
69 | O=[N+]([O-])c1ccc(-c2nc3ccc([N+](=O)[O-])cc3[nH]2)cc1 | inconclusive: 29.1 µM [cytotoxic, single point]
70 | O=CNc1cc(-c2ccccc2Oc2ccccc2)cn2c(-c3ccc(F)cc3)cnc12 | inconclusive: 18.4 µM [cytotoxic, single point]
71 | Cc1cccn2c(=O)c3cc(S(=O)(=O)c4ccc(F)cc4)c(=N)n(Cc4ccco4)c3nc12 | inactive

Part of the list above, as comma-separated lines.
Row,SMILES,Potency
61,CCc1c(C)nc(N)n2c(SCC(=O)Nc3ccccc3)nnc12,"inconclusive: 9.2 µM [cytotoxic, partial curve, poor fit]"
62,COc1cc(OC)c(Nc2nc3ccc(C(=O)c4ccccc4)cc3n3c(C)nnc23)cc1Cl,inactive
63,Cc1cc2ccccc2cn1,inactive
